The full ranking holds about 33,000 sequences; the median of “E-score (-0.5 to 0.5)” is about -0.015, and the highest 2% start at about 0.3. This is one part of the list.
The sequences below were run against T1, Abf1 (UniProt P14164) (assay: PBM E-score (8-mer binding enrichment) (E-score (-0.5 to 0.5)); higher = stronger / more preferred TF binding). Details: protein concentration: 200 nM; construct: GST-full length.
T1 sequence: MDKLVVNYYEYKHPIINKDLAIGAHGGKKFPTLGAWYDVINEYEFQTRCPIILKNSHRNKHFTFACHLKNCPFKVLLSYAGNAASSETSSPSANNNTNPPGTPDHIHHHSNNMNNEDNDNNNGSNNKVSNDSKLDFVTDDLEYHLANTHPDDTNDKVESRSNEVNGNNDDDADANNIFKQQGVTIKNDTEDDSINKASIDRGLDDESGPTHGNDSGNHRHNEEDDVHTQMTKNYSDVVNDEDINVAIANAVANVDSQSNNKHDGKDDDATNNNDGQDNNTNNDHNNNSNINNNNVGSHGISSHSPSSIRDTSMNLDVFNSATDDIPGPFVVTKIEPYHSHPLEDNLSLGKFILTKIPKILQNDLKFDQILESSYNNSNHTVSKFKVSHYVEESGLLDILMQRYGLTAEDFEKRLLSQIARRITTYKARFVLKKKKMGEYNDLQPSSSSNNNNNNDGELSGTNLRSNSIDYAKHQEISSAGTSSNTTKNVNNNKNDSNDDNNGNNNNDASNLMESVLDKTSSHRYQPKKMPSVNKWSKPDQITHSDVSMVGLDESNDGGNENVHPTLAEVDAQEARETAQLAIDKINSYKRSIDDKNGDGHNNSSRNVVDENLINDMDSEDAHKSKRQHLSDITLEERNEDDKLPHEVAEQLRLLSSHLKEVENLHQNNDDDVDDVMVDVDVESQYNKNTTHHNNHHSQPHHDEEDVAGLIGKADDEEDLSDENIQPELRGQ
Protocol: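 Universal 'all 10-mer' protein binding microarrays (Agilent AMADID 015681) probed with GST-tagged S. cerevisiae TFs (full-length or DBD) made by in vitro transcription/translation (PURExpress), about 100-200 nM. Bound TF was detected with fluorescent anti-GST. Each ungapped 8-mer (which stands for itself and its reverse complement) is scored by the PBM enrichment score (E-score), a modified Wilcoxon-Mann-Whitney statistic from -0.5 to +0.5, computed with the Universal PBM Analysis Suite. Scale: above 0.35 generally sequence-specific binding.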

Row | Sequence | PBM E-score
1 | AACCGGTT | 0.0655
2 | TCCGCCGA | -0.105
3 | GGAAACGA | 0.172
4 | AAGCAGCC | -0.127
5 | GCAGGTCA | 0.0527
6 | CAGGTCAG | -0.22
7 | ACACAGAA | -0.124
8 | AACCGGGT | -0.159
9 | GAAGCACC | -0.247
10 | ATCTTGCA | 0.199
11 | CCGGACAC | -0.0465
12 | CCGTGCAG | 0.192
13 | GACTACTC | -0.0492
14 | TACTACCA | -0.194
15 | CAAAGATA | -0.0399
16 | ATCGGATC | 0.0622
17 | CAATCCAA | 0.124
18 | AGGCGTTA | -0.128
19 | ACGTGTAC | 0.115
20 | AGTATAAT | 0.101
21 | CTCGCCGA | -0.00188
22 | GCATATCC | 0.179
23 | CGTCCAGA | 0.0648
24 | ATATGTAC | 0.0989
25 | CGCGCACC | -0.00342

Row | Sequence | PBM E-score
26 | AGAGCAGA | -0.00424
27 | GAACGCGA | -0.146
28 | CGAATTCG | -0.0733
29 | CAGAGGCA | -0.205
30 | AGACGGAT | 0.166
31 | ATAGAAAA | -0.00184
32 | AAGCCGCT | -0.175
33 | ACCGTATA | 0.384
34 | CATAATAA | 0.216
35 | AATTGCGT | 0.0893
36 | ACTCTCAC | -0.0836
37 | AGATACTG | 0.115
38 | AAATGTGA | 0.228
39 | AGCGCTCA | 0.0307
40 | CCTTGTCA | 0.155
41 | AATGACGA | 0.36
42 | AATATTGC | 0.174
43 | CACACAGC | -0.153
44 | CCTGAATA | 0.102
45 | CACGATAG | 0.179
46 | AGTTACAG | 0.0753
47 | ACACGGTC | -0.0126
48 | AGCGGAAT | -0.0831
49 | CGAACGCC | 0.151
50 | GATCATTA | 0.261

Row | Sequence | PBM E-score
51 | GCAGTCAA | -0.127
52 | AGCTGGGC | -0.138
53 | CCAAATGA | 0.251
54 | GCCAAGGC | -0.255
55 | CTAAAAAG | -0.00165
56 | CAGTGTCG | -0.159
57 | AGATCGAC | -0.0288
58 | TCCACACA | -0.107
59 | AAATTCGA | -0.0902
60 | GGCATTGA | 0.0468
61 | ATGCACTG | -0.0711
62 | AATATTTA | 0.238
63 | CACTACTC | 0.189
64 | ACCAAAGA | 0.243
65 | TAGCAATA | 0.216
66 | ATTGGGAG | 0.0823
67 | CGTATAGC | 0.165
68 | AGAACAAT | 0.134
69 | GTCGTAAA | 0.184
70 | AAAGTGTG | 0.0246
71 | AAAACTCC | -0.0741
72 | CCAACACC | -0.23
73 | ACATAGCC | 0.0108
74 | AGAGAACA | 0.071
75 | CCCTATTC | 0.0667

Shown field by field: part of the list above.
ATATGTAC
  PBM E-score = 0.0989
GAACGCGA
  PBM E-score = -0.146
CGTATAGC
  PBM E-score = 0.165
CCAACACC
  PBM E-score = -0.23

Next part.

Row | Sequence | PBM E-score
76 | AGGAGCCG | -0.192
77 | CCCGCTGA | -0.17
78 | ATTCCCGC | 0.00578
79 | AGGCAGAG | -0.191
80 | ACTCCACC | 0.032
81 | GGTGGTCA | -0.0604
82 | TGTGGAAA | 0.0635
83 | ATCTTTTC | 0.081
84 | AACTATTC | 0.0304
85 | CAAGCGTA | -0.0445
86 | CACCTCGC | -0.0945
87 | AGTTATTG | 0.0563
88 | ACGGGAGT | 0.214
89 | CTTAACAC | 0.111
90 | CCCTGCAA | -0.213
91 | AAGCCCTA | -0.0285
92 | CCTTGGCA | -0.211
93 | GTATCAAA | 0.289
94 | CACATTCC | 0.00518
95 | CCCATAGG | -0.0295
96 | CTGGCCAA | -0.118
97 | CGGCTATC | 0.148
98 | AAGGGGCC | -0.226
99 | ACGGTTGC | 0.104
100 | GTTATCGA | 0.0373

Row | Sequence | PBM E-score
101 | ATGCGCGC | -0.0241
102 | ACTTAAAA | 0.0763
103 | ACAGCGAC | 0.0222
104 | CGGCAGTA | 0.0137
105 | AGGTAGAG | -0.194
106 | ATTCCCGG | 0.154
107 | GCTCAAGC | -0.203
108 | AAAAATAA | 0.113
109 | TTAAGAAA | 0.0332
110 | AGAAAATA | 0.0727
111 | CACGTGGG | -0.0582
112 | CCCGGTCC | -0.166
113 | GGCCCATA | -0.151
114 | AAGCTTGC | -0.183
115 | GGACGCTA | -0.131
116 | ACCGCGAC | 0.0617
117 | CCGTAGAA | 0.298
118 | GATAGAAA | -0.112
119 | TCCCAGGA | -0.121
120 | ACCTGCCT | -0.0725
121 | ATACGGAA | 0.299
122 | CTAGATAG | -0.0573
123 | CCGATCGA | -0.297
124 | AGTCACGC | 3e-05
125 | AAATCTTC | -0.0238

Row | Sequence | PBM E-score
126 | GAATTCCA | 0.135
127 | AGAGAACC | -0.249
128 | ACTTGGGC | -0.164
129 | CCTAAGAG | -0.0103
130 | TGGCCCCA | -0.247
131 | ATAGGTTC | -0.106
132 | GTTCGAAA | 0.229
133 | AAGTTTTA | 0.091
134 | CTTATGAA | -0.0835
135 | TACAGTAA | 0.0132
136 | CGTTATCA | 0.205
137 | AACCCCCT | -0.262
138 | CATGGAAG | -0.0245
139 | ATGACGGG | 0.122
140 | ATTACATG | 0.0835
141 | ACTCTGTA | -0.207
142 | AAAGTAGC | 0.0993
143 | AAGCAATC | 0.167
144 | TGTTCGAA | -0.0208
145 | AACATGAA | 0.0277
146 | ACTCGTTG | -0.00197
147 | GTGGGGTA | -0.0965
148 | GAGGTTGC | -0.163
149 | AGAACTCC | -0.0954
150 | CCCTTCGA | -0.312

Individual results from the results shown:
In PBM E-score, TAGCAATA reads 0.216
In PBM E-score, GGCATTGA reads 0.0468
In PBM E-score, GTCGTAAA reads 0.184
In PBM E-score, ACCTGCCT reads -0.0725
In PBM E-score, AGAACTCC reads -0.0954

(listing goes on)

Row | Sequence | PBM E-score
151 | GAAATCGA | -0.13
152 | AAGACAGC | -0.0614
153 | ATTTTAAC | -0.0122
154 | ATTCACCC | -0.0517
155 | TCCCGGAA | -0.0382
156 | AGCTTCAA | 0.0465
157 | AGAATCCT | 0.0437
158 | TAGTGTCA | 0.117
159 | TACGTTGA | 0.134
160 | CGCTCTCA | -0.105
161 | AATAGGAT | 0.144
162 | GGAATTAC | 0.0503
163 | CTCGTTTC | 0.129
164 | CCGTAATA | 0.268
165 | CGAGGCAC | -0.0782
166 | CGAGAGAA | 0.0467
167 | GGAGTACC | -0.241
168 | ATGAAATC | 0.044
169 | ACACCCGA | 0.0113
170 | GCTGAACC | -0.0709
171 | AAGATTCC | 0.164
172 | ATATAGTC | 0.142

From the supplement of paper PMC3334620
